This test concerns the target T1, A1 receptors (Rattus norvegicus, UniProt P25099).
T1 sequence (P25099 1-326): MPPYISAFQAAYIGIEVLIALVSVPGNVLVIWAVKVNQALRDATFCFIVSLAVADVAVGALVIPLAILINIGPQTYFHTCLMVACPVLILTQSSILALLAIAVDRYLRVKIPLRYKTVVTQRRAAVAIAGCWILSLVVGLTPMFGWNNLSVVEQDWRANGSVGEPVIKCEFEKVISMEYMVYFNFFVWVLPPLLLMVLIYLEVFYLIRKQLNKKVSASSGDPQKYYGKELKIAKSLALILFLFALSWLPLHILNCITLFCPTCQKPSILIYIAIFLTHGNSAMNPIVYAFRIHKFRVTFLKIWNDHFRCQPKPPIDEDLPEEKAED
The class given is binding.

`COC(=O)C1=C(C)NC(C)=C(C(=O)OC)C1c1ccccc1[N+](=O)[O-]` [Compound 60, nifedipine, reference compound]: the “greater affinity to A1 than A2a adenosine receptors” value is given as “greater affinity to A1 adenosine receptors than A2a receptors”. In addition, where the note is “read-out: Ki rA1”, the Ki was 2890 nM.

Values taken from patent US6066642A, “Dihydropyridine-, pyridine-, benzopyran-4-one- and triazoloquinazoline derivative, their preparation and their use as adenosine receptor antagonists” (priority 1998, dated 2000).
